From article PMC4076869
Numbering of substitutions follows the chain as printed. These are yes or no findings as the source states them, for the method shown. Binding seen in cells or lysates may run through a third protein. Some results given as binding are weak or reduced against the parent protein; the word gives no strength. For some assays here: Sequences can lack the tags named with a protein.

Protein sequences, listed by entry. Tags and fused reporters are not part of them. Lines headed by an entry give the natural chain unless they say otherwise; changes in a name come on top.
UniProt P03255: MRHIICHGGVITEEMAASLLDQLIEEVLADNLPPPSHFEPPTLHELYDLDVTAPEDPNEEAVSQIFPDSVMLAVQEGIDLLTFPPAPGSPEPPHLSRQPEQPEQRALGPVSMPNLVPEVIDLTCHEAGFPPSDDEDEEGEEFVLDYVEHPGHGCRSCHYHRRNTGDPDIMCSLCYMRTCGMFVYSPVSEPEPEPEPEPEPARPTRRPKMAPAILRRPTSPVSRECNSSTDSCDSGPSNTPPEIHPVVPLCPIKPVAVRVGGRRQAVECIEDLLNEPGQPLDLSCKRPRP
UniProt Q14209: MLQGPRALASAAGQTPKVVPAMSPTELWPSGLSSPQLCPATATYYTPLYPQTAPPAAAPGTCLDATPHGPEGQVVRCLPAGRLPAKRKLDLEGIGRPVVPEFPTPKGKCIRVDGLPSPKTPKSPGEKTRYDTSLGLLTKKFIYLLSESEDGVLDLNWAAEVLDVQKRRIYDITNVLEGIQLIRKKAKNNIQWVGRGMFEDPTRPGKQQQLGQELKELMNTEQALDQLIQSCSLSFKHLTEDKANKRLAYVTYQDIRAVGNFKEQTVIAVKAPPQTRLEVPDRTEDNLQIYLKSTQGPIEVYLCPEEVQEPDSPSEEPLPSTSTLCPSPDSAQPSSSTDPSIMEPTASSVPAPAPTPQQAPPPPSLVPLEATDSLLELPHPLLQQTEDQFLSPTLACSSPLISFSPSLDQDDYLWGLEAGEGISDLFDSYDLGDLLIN
UniProt Q16254: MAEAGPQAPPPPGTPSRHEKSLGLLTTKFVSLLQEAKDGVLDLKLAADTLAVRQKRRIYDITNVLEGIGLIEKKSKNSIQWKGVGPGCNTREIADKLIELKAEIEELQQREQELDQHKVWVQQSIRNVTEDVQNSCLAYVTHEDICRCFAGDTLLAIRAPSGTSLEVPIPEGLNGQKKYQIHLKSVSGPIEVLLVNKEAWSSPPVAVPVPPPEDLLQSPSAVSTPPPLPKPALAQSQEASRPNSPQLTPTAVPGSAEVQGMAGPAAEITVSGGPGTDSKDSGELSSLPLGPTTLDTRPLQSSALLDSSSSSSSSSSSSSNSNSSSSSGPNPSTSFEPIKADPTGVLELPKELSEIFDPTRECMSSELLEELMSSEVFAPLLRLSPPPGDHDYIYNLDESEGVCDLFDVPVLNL
UniProt O00716: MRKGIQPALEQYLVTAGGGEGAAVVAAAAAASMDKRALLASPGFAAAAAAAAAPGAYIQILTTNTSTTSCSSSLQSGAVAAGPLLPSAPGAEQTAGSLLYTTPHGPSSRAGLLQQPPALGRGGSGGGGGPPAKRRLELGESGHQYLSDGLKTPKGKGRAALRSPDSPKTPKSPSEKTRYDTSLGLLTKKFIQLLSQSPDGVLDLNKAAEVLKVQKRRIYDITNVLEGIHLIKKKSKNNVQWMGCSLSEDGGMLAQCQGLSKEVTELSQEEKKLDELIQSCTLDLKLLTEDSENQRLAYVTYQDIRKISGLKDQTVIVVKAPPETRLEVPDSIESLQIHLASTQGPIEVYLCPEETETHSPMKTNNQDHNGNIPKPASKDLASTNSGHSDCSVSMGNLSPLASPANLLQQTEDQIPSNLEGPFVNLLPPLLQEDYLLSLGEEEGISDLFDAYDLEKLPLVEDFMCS

B1: Rb-HA single Cdk site construct S230 (mono-phosphorylated Rb isoform) (protein, UniProt P06400 1-928)
chain: MPPKAPRKTAATAAAAAAEPPAPPPPPPPEEDPEQDSGPEDLPLVRLEFEETEEPDFTALCQKLKIPDHVRERAWLTWEKVSSVDGVLGGYIQKKKELWGICIFIAAVDLDEMSFTFTELQKNIEISVHKFFNLLKEIDTSTKVDNAMSRLLKKYDVLFALFSKLERTCELIYLTQPSSSISTEINSALVLKVSWITFLLAKGEVLQMEDDLVISFQLMLCVLDYFIKLSPPMLLKEPYKTAVIPINGAPRAPRRGQNRSARIAKQLENDTRIIEVLCKEHECNIDEVKNVYFKNFIPFMNSLGLVTSNGLPEVENLSKRYEEIYLKNKDLDARLFLDHDKTLQTDSIDSFETQRAPRKSNLDEEVNVIPPHAPVRTVMNTIQQLMMILNSASDQPSENLISYFNNCTVNPKESILKRVKDIGYIFKEKFAKAVGQGCVEIGSQRYKLGVRLYYRVMESMLKSEEERLSIQNFSKLLNDNIFHMSLLACALEVVMATYSRSTSQNLDSGTDLSFPWILNVLNLKAFDFYKVIESFIKAEGNLTREMIKHLERCEHRIMESLAWLSDSPLFDLIKQSKDREGPTDHLESACPLNLPLQNNHTAADMYLAPVRAPKKKGSTTRVNSTANAETQATSAFQTQKPLKSTSLSLFYKKVYRLAYLRLNTLCERLLSEHPELEHIIWTLFQHTLQNEYELMRDRHLDQIMMCSMYGICKVKNIDLKFKIIVTAYKDLPHAVQETFKRVLIKEEEYDSIIVFYNSVFMQRLKTNILQYASTRPPTLAPIPHIPRAPYKFPSAPLRIPGGNIYIAPLKAPYKISEGLPAPTKMAPRSRILVSIGESFGTSEKFQKINQMVCNSDRVLKRSAEGSNPPKPLKKLRFDIEGSDEADGSKHLPGESKFQQKLAEMTSTRTRMQKQKMNDSMDTSNKEEK
modifications: phosphate on S230 (mono-phosphorylated in cells)
B2: Rb-HA single Cdk site construct S249 (mono-phosphorylated Rb isoform) (protein, UniProt P06400 1-928)
chain: B1 chain with S230A, A249S
modifications: phosphate on S249 (mono-phosphorylated in cells)
B3: Rb-HA single Cdk site construct T252 (mono-phosphorylated Rb isoform) (protein, UniProt P06400 1-928)
chain: B1 chain with S230A, A252T
modifications: phosphate on T252 (mono-phosphorylated in cells)
B4: Rb-HA single Cdk site construct T356 (mono-phosphorylated Rb isoform) (protein, UniProt P06400 1-928)
chain: B1 chain with S230A, A356T
modifications: phosphate on T356 (mono-phosphorylated in cells)
B5: Rb-HA single Cdk site construct T373 (mono-phosphorylated Rb isoform) (protein, UniProt P06400 1-928)
chain: B1 chain with S230A, A373T
modifications: phosphate on T373 (mono-phosphorylated in cells)
B6: Rb-HA single Cdk site construct S608 (mono-phosphorylated Rb isoform) (protein, UniProt P06400 1-928)
chain: B1 chain with S230A, A608S
modifications: phosphate on S608 (mono-phosphorylated in cells)
B7: Rb-HA single Cdk site construct S612 (mono-phosphorylated Rb isoform) (protein, UniProt P06400 1-928)
chain: B1 chain with S230A, A612S
modifications: phosphate on S612 (mono-phosphorylated in cells)
B8: Rb-HA single Cdk site construct S780 (mono-phosphorylated Rb isoform) (protein, UniProt P06400 1-928)
chain: B1 chain with S230A, A780S
modifications: phosphate on S780 (mono-phosphorylated in cells)
B9: Rb-HA single Cdk site construct S788 (mono-phosphorylated Rb isoform) (protein, UniProt P06400 1-928)
chain: B1 chain with S230A, A788S
modifications: phosphate on S788 (mono-phosphorylated in cells)
B10: Rb-HA single Cdk site construct S795 (mono-phosphorylated Rb isoform) (protein, UniProt P06400 1-928)
chain: B1 chain with S230A, A795S
modifications: phosphate on S795 (mono-phosphorylated in cells)
B11: Rb-HA single Cdk site construct S807 (mono-phosphorylated Rb isoform) (protein, UniProt P06400 1-928)
chain: B1 chain with S230A, A807S
modifications: phosphate on S807 (mono-phosphorylated in cells)
B12: Rb-HA single Cdk site construct S811 (mono-phosphorylated Rb isoform) (protein, UniProt P06400 1-928)
chain: B1 chain with S230A, A811S
modifications: phosphate on S811 (mono-phosphorylated in cells)
B13: Rb-HA single Cdk site construct T821 (mono-phosphorylated Rb isoform) (protein, UniProt P06400 1-928)
chain: B1 chain with S230A, A821T
modifications: phosphate on T821 (mono-phosphorylated in cells)
B14: Rb-HA single Cdk site construct T826 (mono-phosphorylated Rb isoform) (protein, UniProt P06400 1-928)
chain: B1 chain with S230A, A826T
modifications: phosphate on T826 (mono-phosphorylated in cells)

target: E1a oncoprotein (adenovirus (type not stated)) (UniProt P03255); assay: co-IP; each Rb-HA construct co-transfected into cells co-expressing E1a or a Myc-tagged E2F; E1a or the E2F immunoprecipitated, immunoblot for the associated Rb-HA

| Molecule | binding |
| --- | --- |
| Rb-HA single Cdk site construct S807 (mono-phosphorylated Rb isoform) (from UniProt P06400 1-928) | binds |
| Rb-HA single Cdk site construct S608 (mono-phosphorylated Rb isoform) (from UniProt P06400 1-928) | binds |
| Rb-HA single Cdk site construct S249 (mono-phosphorylated Rb isoform) (from UniProt P06400 1-928) | binds |
| Rb-HA single Cdk site construct S788 (mono-phosphorylated Rb isoform) (from UniProt P06400 1-928) | binds |
| Rb-HA single Cdk site construct T373 (mono-phosphorylated Rb isoform) (from UniProt P06400 1-928) | binds |
| Rb-HA single Cdk site construct S780 (mono-phosphorylated Rb isoform) (from UniProt P06400 1-928) | binds |
| Rb-HA single Cdk site construct S811 (mono-phosphorylated Rb isoform) (from UniProt P06400 1-928) | binds |
| Rb-HA single Cdk site construct S795 (mono-phosphorylated Rb isoform) (from UniProt P06400 1-928) | binds |
| Rb-HA single Cdk site construct T826 (mono-phosphorylated Rb isoform) (from UniProt P06400 1-928) | binds |
| Rb-HA single Cdk site construct T356 (mono-phosphorylated Rb isoform) (from UniProt P06400 1-928) | binds |
| Rb-HA single Cdk site construct S612 (mono-phosphorylated Rb isoform) (from UniProt P06400 1-928) | binds |
| Rb-HA single Cdk site construct T821 (mono-phosphorylated Rb isoform) (from UniProt P06400 1-928) | binds |
| non-phosphorylatable ΔCdk Rb-HA (human Rb^ΔCDK-HA) (from UniProt P06400 1-928) | binds |
| Rb-HA single Cdk site construct S230 (mono-phosphorylated Rb isoform) (from UniProt P06400 1-928) | binds |
| Rb-HA single Cdk site construct T252 (mono-phosphorylated Rb isoform) (from UniProt P06400 1-928) | binds |

target: E2F-2 transcription factor (Myc tagged) (UniProt Q14209); assay: as above

| Molecule | binding |
| --- | --- |
| B1 | binds |
| B2 | binds |
| B3 | binds |
| B4 | binds |
| B5 | binds |
| B6 | binds |
| B7 | binds |
| B8 | binds |
| B9 | binds |
| B10 | binds |
| B11 | binds |
| B12 | binds |
| B13 | binds |
| B14 | binds |

target: E2F-4 transcription factor (Myc tagged) (UniProt Q16254); assay: as above

| Molecule | binding |
| --- | --- |
| B1 | binds |
| B2 | binds |
| B5 | binds |
| B8 | binds |
| B9 | binds |
| B12 | binds |
| B14 | binds |

target: E2F-3 transcription factor (Myc tagged) (UniProt O00716); assay: as above

| Molecule | binding |
| --- | --- |
| B1 | binds |
| B2 | binds |
| B3 | binds |
| B4 | binds |
| B5 | binds |
| B6 | binds |
| B7 | binds |
| B8 | binds |
| B9 | binds |
| B10 | binds |
| B11 | binds |
| B12 | binds |
| B13 | binds |
| B14 | binds |
